Article PMC9464236, “Biochemical characterization of a disease-causing human osteoprotegerin variant” (Scientific Reports, 2022)
No constants are given. Whether binding was seen depends on the method and setting. Binding calls can cover weak binding; strength is not graded here. Blank lines part the entries; values can stand above or below the binder they belong to.

Sequences of proteins named here, by UniProt entry; tags and fusion partners are left off. A change or cut given only in a name is not applied to a line headed by its entry.
UniProt O35235: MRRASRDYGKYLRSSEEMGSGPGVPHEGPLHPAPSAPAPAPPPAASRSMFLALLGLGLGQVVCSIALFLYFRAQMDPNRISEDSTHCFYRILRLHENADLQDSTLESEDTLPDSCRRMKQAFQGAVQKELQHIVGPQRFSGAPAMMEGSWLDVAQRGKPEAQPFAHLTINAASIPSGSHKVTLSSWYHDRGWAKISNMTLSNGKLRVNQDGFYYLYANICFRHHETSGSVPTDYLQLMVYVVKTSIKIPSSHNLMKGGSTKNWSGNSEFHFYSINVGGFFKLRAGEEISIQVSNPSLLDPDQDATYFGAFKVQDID

Biological target: recombinant soluble RANKL (sRANKL) (UniProt O35235)
Experiment: ELISA; plate coated with recombinant sRANKL, blocked with 1% BSA; OPG at 1 to 1000 ng/ml for 2 h; biotinylated rabbit anti-OPG, streptavidin-HRP; apparent Kd; both purified

binding: binds
B1: wildtype human osteoprotegerin (WT OPG) (receptor, UniProt O00300 22-401, looked up)
chain: ETFPPKYLHYDEETSHQLLCDKCPPGTYLKQHCTAKWKTVCAPCPDHYYTDSWHTSDECLYCSPVCKELQYVKQECNRTHNRVCECKEGRYLEIEFCLKHRSCPPGFGVVQAGTPERNTVCKRCPDGFFSNETSSKAPCRKHTNCSVFGLLLTQKGNATHDNICSGNSESTQKCGIDVTLCEEAFFRFAVPTKFTPNWLSVLVDNLPGTKVNAESVERIKRQHSSQEQTFQLLKLWKHQNKDQDIVKKIIQDIDLCENSVQRHIGHANLTFEQLRSLMESLPGKKVGAEDIEKTIKACKPSDQILKLLSLWRIKNGDQDTLKGLMHALKHSKTYHFPKTVTQSLKKTIRFLHSFTMYKLYQKLFLEMIGNQVQSVKISCL
notes: Osteoprotegerin (OPG, TNFRSF11B), human; complete open reading frame of full-length human OPG in pcDNA3.4-TOPO; stop codon at position 402; Disulfide-linked dimer; assays used the SEC-purified dimer; also called WT hOPG; hOPG; source: 293-freestyle cells, transiently transfected; purified from medium (heparin Sepharose, Superdex 200)

binding: binds
B2: human osteoprotegerin Stop402Leu mutant with a 19-residue C-terminal appendage (OPG^+19) (receptor)
chain: ETFPPKYLHYDEETSHQLLCDKCPPGTYLKQHCTAKWKTVCAPCPDHYYTDSWHTSDECLYCSPVCKELQYVKQECNRTHNRVCECKEGRYLEIEFCLKHRSCPPGFGVVQAGTPERNTVCKRCPDGFFSNETSSKAPCRKHTNCSVFGLLLTQKGNATHDNICSGNSESTQKCGIDVTLCEEAFFRFAVPTKFTPNWLSVLVDNLPGTKVNAESVERIKRQHSSQEQTFQLLKLWKHQNKDQDIVKKIIQDIDLCENSVQRHIGHANLTFEQLRSLMESLPGKKVGAEDIEKTIKACKPSDQILKLLSLWRIKNGDQDTLKGLMHALKHSKTYHFPKTVTQSLKKTIRFLHSFTMYKLYQKLFLEMIGNQVQSVKISCLLLEMAIELFPHNWRDPMDE
notes: Osteoprotegerin (OPG, TNFRSF11B), human; complete open reading frame, residues up to 401, followed by the read-through appendage; 19-residue appendage 402-420 made by read-through of the mutated stop codon (Stop402Leu); Secreted; Mixture of higher-order oligomers; also called mutant hOPG; mutant OPG; source: 293-freestyle cells, transiently transfected; purified from medium (heparin Sepharose, …)
